Source: publication PMC6915718
For some of these results: Negatives hold for the conditions tested. For some of these results: For at least one entry, the source does not settle the construct or the ends of the probe. For some of these results: Weaker means in comparison with the reference protein, sequence or condition of that experiment. For some of these results: At least one verdict rests on a figure or table, not on a statement of the authors.

Amino acid sequences for entries named in this document (tags omitted). Residues count along the entry.
UniProt P02769, 25-607: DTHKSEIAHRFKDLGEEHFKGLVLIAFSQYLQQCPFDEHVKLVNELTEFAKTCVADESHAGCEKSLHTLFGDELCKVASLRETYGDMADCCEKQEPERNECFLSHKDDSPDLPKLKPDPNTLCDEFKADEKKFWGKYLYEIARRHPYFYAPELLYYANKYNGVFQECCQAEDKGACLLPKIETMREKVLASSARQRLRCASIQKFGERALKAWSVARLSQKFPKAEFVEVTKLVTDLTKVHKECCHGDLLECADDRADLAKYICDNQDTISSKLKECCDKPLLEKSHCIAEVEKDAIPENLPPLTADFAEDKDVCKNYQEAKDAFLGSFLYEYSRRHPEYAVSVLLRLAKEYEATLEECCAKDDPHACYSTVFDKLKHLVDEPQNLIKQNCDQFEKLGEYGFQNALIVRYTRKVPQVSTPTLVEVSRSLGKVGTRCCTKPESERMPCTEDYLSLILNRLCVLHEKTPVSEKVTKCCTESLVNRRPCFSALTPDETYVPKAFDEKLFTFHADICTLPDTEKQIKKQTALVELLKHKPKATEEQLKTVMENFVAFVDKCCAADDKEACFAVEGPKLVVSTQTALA

Assays:
[1] = system: Cdc13 (Naumovozyma castellii); experiment: ExoT 3' end protection (3'DEPA); conditions: D13S13 present in equal concentration, oligo not protected, recombinant protein, label: 5' end label, single-stranded DNA
[2] = system: Cdc13 (Naumovozyma castellii); experiment: EMSA; conditions: EMSA with 10 fmol probe in 15 ul; 3'DEPA under the same binding conditions, then 0.015 U/ul ExoT at 25 C; recombinant protein; label: 5' 32P on G-rich strand
[3] = system: Rap1 full length (Naumovozyma castellii); experiment: ExoT 3' end protection (3'DEPA); EMSA; conditions: EMSA with 10 fmol probe in 15 ul, 3'DEPA under the same binding conditions, then 0.015 U/ul ExoT at 25 C, label: 5' 32P on G-rich strand
[4] = system: Rap1 DBD337-582 (Naumovozyma castellii); experiment: ExoT 3' end protection (3'DEPA); conditions: recombinant protein, label: 5' 32P on G-rich strand
[5] = biological target: BSA (UniProt P02769); experiment: ExoT 3' end protection (3'DEPA); conditions: overhang fully digested, commercial protein, label: 5' 32P on G-rich strand
[6] = system: Rap1 DBD337-572 (Naumovozyma castellii); experiment: ExoT 3' end protection (3'DEPA); conditions: recombinant protein, label: 5' 32P on G-rich strand
[7] = system: Rap1 full length (Naumovozyma castellii); experiment: EMSA; conditions: only minute amounts bound; EMSA with 10 fmol probe in 15 ul; 3'DEPA under the same binding conditions, then 0.015 U/ul ExoT at 25 C; recombinant protein; label: 5' 32P on G-rich strand

GGACTTAAAATGGCGTGGCAGAACTAACTCTT [Cdc13 no binding control]
binding result [1]: no binding

GTCACACGTCACACTCTGGGTGTCTGGGTGTCTGGGTGTC / CCAGACACCCAGAGTGTGACGTGTGAC [D13S13]
binding result [2]: binds
binding result ([3]; bound across ds-ss junction, protects 6 nt of overhang, recombinant protein): binds
binding result [4]: binds
binding result [5]: no binding
binding result [6]: binds

GTCACACGTCACACTCTGGGTGTCTGGGTGTCTGGGTGTC / ACCCAGACACCCAGAGTGTGACGTGTGAC [D15S11]
binding result ([3]; protects 1-2 nt of overhang, recombinant …): binds
binding result [4]: binds
binding result [6]: binds

GTCACACGTCACACTCTGGGACTCTCCGTGTCTGGGTGTC / GGAGAGTCCCAGAGTGTGACGTGTGAC [D13S13mutRap1]
binding result [7]: binds more weakly
